Laboratory results from the supplement of paper PMC10849652.
Some of the results follow.

The chains behind the UniProt entries cited, without tags or fusion partners. Where a name states a change or a piece, a line headed by the entry shows the natural chain unless it says otherwise.
UniProt Q8WXD5: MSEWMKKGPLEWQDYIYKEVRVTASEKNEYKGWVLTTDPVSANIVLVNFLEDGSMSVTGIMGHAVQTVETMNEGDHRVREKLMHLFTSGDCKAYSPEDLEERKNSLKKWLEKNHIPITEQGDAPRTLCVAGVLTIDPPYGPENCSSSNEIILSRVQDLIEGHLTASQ
UniProt P15407: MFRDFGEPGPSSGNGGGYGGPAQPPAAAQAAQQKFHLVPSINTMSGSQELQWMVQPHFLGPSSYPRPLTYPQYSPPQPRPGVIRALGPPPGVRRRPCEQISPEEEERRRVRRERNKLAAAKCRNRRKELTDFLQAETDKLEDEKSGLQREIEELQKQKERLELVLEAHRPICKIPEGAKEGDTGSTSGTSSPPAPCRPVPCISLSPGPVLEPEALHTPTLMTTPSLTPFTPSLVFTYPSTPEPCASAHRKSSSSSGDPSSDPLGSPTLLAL
UniProt Q8N4A0: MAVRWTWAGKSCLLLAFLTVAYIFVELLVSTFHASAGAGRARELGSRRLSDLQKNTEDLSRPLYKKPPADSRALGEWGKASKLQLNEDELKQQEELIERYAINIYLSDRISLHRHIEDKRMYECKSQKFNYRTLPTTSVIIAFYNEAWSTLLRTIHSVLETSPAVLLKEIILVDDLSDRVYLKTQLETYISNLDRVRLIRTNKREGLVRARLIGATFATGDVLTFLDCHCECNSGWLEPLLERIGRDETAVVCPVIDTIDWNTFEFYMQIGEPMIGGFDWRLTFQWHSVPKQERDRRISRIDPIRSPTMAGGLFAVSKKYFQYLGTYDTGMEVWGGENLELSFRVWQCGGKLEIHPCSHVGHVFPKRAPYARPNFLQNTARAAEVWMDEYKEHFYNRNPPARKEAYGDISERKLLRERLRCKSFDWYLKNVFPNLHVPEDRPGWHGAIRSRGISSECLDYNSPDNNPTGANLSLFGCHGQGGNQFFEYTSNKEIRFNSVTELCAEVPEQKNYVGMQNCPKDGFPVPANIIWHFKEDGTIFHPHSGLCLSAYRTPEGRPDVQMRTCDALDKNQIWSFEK
UniProt P04066: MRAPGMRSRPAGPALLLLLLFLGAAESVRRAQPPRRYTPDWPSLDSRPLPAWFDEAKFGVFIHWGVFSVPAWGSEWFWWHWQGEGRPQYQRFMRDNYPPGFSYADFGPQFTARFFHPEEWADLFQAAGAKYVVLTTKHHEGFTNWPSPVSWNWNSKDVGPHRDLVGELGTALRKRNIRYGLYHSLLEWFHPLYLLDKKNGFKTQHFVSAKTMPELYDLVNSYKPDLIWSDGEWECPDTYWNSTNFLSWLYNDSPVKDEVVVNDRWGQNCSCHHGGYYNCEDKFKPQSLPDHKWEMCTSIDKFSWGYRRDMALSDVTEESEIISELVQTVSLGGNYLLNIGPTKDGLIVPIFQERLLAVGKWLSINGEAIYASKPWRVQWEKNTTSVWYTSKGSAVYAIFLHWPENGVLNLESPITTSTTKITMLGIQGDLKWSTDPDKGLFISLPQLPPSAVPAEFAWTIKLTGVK
UniProt P23434: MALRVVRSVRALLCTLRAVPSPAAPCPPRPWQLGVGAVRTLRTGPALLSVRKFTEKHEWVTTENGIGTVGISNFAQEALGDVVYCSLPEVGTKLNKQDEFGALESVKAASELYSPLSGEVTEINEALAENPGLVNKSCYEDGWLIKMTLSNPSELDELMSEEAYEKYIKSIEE
UniProt P48507: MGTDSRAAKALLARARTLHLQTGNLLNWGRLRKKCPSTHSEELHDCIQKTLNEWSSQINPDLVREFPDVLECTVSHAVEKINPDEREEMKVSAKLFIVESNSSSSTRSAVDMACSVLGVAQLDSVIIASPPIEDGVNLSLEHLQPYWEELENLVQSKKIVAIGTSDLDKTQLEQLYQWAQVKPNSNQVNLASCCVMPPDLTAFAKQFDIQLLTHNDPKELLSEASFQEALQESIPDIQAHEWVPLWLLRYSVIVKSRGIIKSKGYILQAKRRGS
UniProt Q92947: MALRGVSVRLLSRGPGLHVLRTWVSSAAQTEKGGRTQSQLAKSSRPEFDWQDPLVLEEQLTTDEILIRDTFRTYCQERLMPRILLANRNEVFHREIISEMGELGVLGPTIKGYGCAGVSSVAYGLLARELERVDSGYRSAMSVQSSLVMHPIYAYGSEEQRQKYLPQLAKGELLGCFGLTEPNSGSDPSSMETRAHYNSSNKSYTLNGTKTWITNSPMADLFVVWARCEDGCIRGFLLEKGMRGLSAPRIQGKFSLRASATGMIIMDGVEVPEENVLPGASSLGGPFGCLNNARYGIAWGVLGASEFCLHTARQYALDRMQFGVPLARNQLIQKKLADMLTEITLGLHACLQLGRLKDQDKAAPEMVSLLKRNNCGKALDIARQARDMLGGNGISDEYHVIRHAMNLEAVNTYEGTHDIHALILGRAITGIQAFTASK
UniProt Q8N9F7: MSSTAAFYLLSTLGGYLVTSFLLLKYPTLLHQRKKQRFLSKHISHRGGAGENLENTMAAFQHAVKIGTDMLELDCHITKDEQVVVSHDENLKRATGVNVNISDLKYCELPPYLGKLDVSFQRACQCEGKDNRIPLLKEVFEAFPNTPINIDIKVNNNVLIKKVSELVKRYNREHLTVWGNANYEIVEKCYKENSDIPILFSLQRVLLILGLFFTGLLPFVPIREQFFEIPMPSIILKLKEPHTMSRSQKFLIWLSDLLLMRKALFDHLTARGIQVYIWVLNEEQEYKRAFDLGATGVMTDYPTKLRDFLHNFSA
UniProt O14893: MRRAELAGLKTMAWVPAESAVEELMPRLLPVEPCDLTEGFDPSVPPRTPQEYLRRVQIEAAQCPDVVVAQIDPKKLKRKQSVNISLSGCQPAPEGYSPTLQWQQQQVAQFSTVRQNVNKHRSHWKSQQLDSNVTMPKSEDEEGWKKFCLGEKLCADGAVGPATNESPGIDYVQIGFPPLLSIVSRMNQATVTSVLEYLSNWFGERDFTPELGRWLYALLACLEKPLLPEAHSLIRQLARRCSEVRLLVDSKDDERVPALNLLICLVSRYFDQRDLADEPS
UniProt Q06546: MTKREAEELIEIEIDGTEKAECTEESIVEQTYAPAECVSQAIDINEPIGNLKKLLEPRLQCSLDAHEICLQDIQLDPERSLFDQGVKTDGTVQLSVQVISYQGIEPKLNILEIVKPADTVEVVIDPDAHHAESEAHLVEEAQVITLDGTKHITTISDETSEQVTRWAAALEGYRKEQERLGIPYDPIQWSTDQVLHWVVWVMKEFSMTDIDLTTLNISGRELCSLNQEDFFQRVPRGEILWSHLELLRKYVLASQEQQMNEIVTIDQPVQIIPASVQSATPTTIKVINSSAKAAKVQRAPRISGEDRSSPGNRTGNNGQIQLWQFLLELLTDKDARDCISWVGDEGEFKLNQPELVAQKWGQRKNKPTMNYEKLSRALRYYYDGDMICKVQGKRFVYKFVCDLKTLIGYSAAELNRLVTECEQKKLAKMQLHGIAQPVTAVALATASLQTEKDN
UniProt Q8NB37: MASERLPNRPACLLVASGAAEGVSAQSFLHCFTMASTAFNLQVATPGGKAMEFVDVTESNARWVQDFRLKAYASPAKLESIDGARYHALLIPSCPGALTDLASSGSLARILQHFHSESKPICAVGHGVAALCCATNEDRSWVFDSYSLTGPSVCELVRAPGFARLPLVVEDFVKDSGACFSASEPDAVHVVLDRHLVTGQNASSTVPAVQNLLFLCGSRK
UniProt Q8N2G8: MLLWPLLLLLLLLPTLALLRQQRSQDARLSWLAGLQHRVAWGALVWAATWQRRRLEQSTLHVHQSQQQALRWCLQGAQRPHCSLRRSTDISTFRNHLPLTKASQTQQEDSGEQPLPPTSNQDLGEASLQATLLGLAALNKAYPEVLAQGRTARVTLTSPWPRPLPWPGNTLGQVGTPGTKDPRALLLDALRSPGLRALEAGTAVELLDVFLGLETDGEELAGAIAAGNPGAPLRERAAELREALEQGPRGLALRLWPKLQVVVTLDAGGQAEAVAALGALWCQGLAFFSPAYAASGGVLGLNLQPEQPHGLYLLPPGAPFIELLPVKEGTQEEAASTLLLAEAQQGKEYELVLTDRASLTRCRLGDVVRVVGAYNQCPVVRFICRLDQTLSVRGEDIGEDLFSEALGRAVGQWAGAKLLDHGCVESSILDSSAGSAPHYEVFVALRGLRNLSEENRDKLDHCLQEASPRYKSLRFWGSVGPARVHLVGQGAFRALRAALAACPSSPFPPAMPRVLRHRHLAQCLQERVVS
UniProt Q9UJ14: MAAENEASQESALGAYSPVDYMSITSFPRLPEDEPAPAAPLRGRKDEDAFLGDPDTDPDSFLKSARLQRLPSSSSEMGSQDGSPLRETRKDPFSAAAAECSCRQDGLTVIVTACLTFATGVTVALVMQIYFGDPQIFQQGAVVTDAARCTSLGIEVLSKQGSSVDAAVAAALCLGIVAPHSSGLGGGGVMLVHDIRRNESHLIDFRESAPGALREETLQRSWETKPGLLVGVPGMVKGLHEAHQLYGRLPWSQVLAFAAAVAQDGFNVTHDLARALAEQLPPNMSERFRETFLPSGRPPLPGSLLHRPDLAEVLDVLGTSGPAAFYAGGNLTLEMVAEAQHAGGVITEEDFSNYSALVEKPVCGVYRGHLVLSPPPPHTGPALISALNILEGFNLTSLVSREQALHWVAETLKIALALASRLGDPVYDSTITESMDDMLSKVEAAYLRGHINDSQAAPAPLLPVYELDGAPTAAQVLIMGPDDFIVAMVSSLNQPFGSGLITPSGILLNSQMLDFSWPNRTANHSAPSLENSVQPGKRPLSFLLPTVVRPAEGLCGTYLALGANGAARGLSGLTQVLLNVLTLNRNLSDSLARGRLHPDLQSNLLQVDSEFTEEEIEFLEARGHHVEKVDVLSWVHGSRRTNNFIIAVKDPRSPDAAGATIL
UniProt P54803: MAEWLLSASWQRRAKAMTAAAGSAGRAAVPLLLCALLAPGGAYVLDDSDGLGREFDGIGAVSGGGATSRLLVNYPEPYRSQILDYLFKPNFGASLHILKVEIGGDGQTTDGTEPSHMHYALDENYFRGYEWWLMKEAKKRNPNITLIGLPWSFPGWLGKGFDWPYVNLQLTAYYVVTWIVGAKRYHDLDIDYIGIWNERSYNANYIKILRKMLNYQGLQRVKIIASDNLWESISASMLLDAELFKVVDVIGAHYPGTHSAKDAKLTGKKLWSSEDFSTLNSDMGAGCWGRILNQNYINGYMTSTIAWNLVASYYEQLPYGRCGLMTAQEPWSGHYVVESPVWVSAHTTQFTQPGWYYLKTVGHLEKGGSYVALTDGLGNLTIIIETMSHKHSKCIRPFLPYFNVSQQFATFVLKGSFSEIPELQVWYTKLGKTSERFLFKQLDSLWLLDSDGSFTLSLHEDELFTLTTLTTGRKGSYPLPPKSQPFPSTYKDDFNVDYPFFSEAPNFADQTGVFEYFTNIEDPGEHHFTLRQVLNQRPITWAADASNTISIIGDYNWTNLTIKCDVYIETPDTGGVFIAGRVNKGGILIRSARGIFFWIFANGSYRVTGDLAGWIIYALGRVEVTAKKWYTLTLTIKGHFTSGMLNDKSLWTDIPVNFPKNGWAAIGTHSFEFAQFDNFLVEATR
UniProt Q10472: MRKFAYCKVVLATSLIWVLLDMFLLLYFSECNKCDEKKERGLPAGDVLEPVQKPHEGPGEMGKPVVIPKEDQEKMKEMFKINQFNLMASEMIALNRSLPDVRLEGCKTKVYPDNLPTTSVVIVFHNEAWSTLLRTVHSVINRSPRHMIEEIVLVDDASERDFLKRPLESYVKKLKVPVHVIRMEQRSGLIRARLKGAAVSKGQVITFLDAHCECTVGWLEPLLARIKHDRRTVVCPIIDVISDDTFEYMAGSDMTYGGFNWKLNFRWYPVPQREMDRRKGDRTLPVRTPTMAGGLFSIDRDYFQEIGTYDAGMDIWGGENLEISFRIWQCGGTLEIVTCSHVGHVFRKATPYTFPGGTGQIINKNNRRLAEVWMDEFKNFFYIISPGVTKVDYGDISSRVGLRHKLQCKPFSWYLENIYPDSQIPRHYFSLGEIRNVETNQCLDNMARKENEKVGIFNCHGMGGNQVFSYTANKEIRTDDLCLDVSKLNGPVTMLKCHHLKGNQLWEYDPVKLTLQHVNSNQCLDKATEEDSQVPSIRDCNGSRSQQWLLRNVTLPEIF

The targets below were run with FC(F)(F)c1ccc(/C=C/c2nc(COc3ccc(CCCCn4ccnn4)cc3)co2)cc1 [mubritinib] (assay: log2 fold change, soluble protein after heating vs DMSO (PISA); higher = thermal stabilisation; K562 cells, 10 uM, 30 min; active = over 0.2 and 3.5 SD of the protein, either way, in both replicates (recomputed)).
Method in brief: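 Soluble protein was defined as the supernatant after 21,000xg for 90 min. It came from K562 cells at 2×10^6 cells/mL given 10 μM compound for 30 min, heated in aliquots for 3 min across 48°C-58°C, pooled, and extracted in PBS with 0.5% NP-40 at 4°C, and was quantified by TMTpro 16plex LC-MS/MS with equalised channel sums. Thermal stability against control samples, from duplicates, is reported as log2 fold change.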

Row | Target | log2 fold change
1 | GALNT11 (UniProt Q8NCW6) | inactive: 0.088
2 | GEMIN6 (UniProt Q8WXD5) | inactive: 0.067
3 | GALNT10 (UniProt Q86SR1) | inactive: 0.048
4 | FOSL1 (UniProt P15407) | inactive: -0.083
5 | GALNT4 (UniProt Q8N4A0) | inactive: 0.035
6 | FNTB (UniProt P49356) | inactive: -0.103
7 | FPGS (UniProt Q05932) | inactive: 0.113
8 | GAB2 (UniProt Q9UQC2) | inactive: 0.075
9 | FOXK1 (UniProt P85037) | inactive: 0.03
10 | GAPVD1 isoform 6 (UniProt Q14C86) | inactive: 0.028
11 | FUCA1 (UniProt P04066) | inactive: -0.008
12 | GCSH (UniProt P23434) | inactive: -0.05
13 | GCLM (UniProt P48507) | inactive: 0.023
14 | GALK1 isoform 2 (UniProt P51570) | inactive: 0.01
15 | GCDH (UniProt Q92947) | inactive: -0.028
16 | GDPD1 (UniProt Q8N9F7) | inactive: 0.096
17 | GEMIN2 (UniProt O14893) | inactive: -0.048
18 | GABPA (UniProt Q06546) | inactive: 0.019
19 | GARS1 (UniProt H7C443) | inactive: 0.033
20 | GATD1 (UniProt Q8NB37) | inactive: 0.035
21 | GHDC (UniProt Q8N2G8) | inactive: 0.01
22 | GGT7 (UniProt Q9UJ14) | inactive: 0.021
23 | GALC (UniProt P54803) | inactive: -0.005
24 | GALNT1 (UniProt Q10472) | inactive: 0.029

Reformatted: results already given.

| Row | Target | log2 fold change |
| --- | --- | --- |
| 5 | GALNT4 (UniProt Q8N4A0) | inactive: 0.035 |
| 12 | GCSH (UniProt P23434) | inactive: -0.05 |
| 13 | GCLM (UniProt P48507) | inactive: 0.023 |
| 16 | GDPD1 (UniProt Q8N9F7) | inactive: 0.096 |
| 18 | GABPA (UniProt Q06546) | inactive: 0.019 |
| 22 | GGT7 (UniProt Q9UJ14) | inactive: 0.021 |
| 23 | GALC (UniProt P54803) | inactive: -0.005 |
